For part of these data: No signal at the amounts used counts as a negative. For part of these data: Protein sequences can lack the tags named with them. For part of these data: Construct, isoform or probe ends are uncertain for at least one entry.

One data set addresses T1, T5 exonuclease (UniProt P06229).
T1 sequence (looked up, limits assumed): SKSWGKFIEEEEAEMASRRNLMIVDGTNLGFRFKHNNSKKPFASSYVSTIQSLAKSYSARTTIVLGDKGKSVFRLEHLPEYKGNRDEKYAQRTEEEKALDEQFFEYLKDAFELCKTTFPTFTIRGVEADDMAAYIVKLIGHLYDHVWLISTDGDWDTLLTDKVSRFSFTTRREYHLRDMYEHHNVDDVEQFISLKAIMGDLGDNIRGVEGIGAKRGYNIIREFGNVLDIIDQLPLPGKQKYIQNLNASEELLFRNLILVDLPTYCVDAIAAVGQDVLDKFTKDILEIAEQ
In words: enzyme reaction in vitro. Conditions: dabcyl-dT at position 29, fluorescein-dT at position 55 [29 dabcyl-dT, 55 fluorescein-dT], purified recombinant protein, protein details: NEB, label: fluorescein/dabcyl.

Data set [1] relates to DNA gyrase (Escherichia coli). In words: binding assay. Conditions: dabcyl-dT at position 29, fluorescein-dT at position 55 [29 dabcyl-dT; 55 fluorescein-dT]; ATP-dependent supercoiling, relatively slow; 4 mM MgCl2, 1.75 mM ATP, 37 C; inhibited by novobiocin (IC50 0.48 uM) and ciprofloxacin (IC50 […]); purified recombinant protein; protein details: New England Biolabs; label: fluorescein/dabcyl; letters built from the parent sequence and the stated change.

Data set [2] relates to Nt.BbvCI nicking endonuclease. In words: enzyme reaction in vitro. Conditions: dabcyl-dT at position 29, fluorescein-dT at position 55 [29 dabcyl-dT; 55 fluorescein-dT]; nicking half-life of supercoiled plasmid followed by FRET; purified recombinant protein; protein details: New England Biolabs; label: fluorescein/dabcyl; letters built from the parent sequence and the stated change.

The target of data set [3] is T2, DNA topoisomerase I (Escherichia coli) (UniProt P06612).
T2 sequence (looked up, limits assumed): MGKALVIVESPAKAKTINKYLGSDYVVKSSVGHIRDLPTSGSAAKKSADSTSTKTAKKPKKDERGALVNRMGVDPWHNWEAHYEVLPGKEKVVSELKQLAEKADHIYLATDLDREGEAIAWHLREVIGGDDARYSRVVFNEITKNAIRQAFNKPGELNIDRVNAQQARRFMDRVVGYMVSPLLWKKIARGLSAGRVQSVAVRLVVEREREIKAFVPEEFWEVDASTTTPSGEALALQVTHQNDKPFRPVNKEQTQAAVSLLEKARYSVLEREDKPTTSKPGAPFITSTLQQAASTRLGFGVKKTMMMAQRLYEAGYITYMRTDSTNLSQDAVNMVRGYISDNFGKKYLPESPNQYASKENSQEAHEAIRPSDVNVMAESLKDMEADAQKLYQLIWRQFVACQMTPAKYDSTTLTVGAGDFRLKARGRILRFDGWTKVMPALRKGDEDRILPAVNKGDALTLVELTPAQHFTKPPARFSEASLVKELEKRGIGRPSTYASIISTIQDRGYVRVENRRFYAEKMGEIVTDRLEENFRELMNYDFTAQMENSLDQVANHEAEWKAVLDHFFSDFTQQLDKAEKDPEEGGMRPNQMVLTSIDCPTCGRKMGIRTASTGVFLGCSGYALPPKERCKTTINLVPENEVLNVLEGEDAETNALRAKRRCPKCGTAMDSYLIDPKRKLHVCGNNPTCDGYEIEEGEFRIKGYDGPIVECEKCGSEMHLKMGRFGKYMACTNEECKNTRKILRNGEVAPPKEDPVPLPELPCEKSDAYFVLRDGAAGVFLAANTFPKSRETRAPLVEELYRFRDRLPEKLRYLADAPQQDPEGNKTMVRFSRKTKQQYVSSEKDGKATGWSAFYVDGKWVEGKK
In words: binding assay. Conditions: dabcyl-dT at position 29, fluorescein-dT at position 55 [29 dabcyl-dT; 55 fluorescein-dT]; rapid relaxation by large amounts of enzyme, FRET kinetics; purified recombinant protein; protein details: purified as described previously; label: fluorescein/dabcyl; letters built from the parent sequence and the stated change.

Take “TCAGCCCGACAGCACGAGACGATATATATATATATATATATATATATATATATATATATATATGGGCCAACCAACCAGCCCC [relaxed pAB1_FL905]”: in the data set with T5 exonuclease (does not degrade relaxed plasmid, letters built from the parent sequence and the stated change), the “activity on this sequence” value is recorded as “not active”. Besides, in data set [1], the binding result is “binds”.
Consider “TCAGCCCGACAGCACGAGACGATATATATATATATATATATATATATATATATATATATATATGGGCCAACCAACCAGCCCC [supercoiled pAB1_FL905]”, for which the activity on this sequence in data set [2] was 15 s; with T5 exonuclease (does not degrade supercoiled plasmid, letters built from the parent sequence and the stated change) it was “not active”. Further, in data set [3], the binding result is “binds”.
Take “TCAGCCCGACAGCACGAGACGATATATATATATATATATATATATATATATATATATATATATGGGCCAACCAACCAGCCCC [FL905 oligomer]”: the “activity on this sequence” value with T5 exonuclease (digests single-stranded FL905, single-stranded DNA, letters built from the parent sequence and the stated …) was “active”.
